In the supplement of paper PMC12067093, “Discovery and optimisation of a covalent ligand for TRIM25 and its application to targeted protein ubiquitination” (Chemical Science, 2025):
Some of the results follow.

The chains behind the UniProt entries cited, without tags or fusion partners. Where a name states a change or a piece, a line headed by the entry shows the natural chain unless it says otherwise.
UniProt O75427: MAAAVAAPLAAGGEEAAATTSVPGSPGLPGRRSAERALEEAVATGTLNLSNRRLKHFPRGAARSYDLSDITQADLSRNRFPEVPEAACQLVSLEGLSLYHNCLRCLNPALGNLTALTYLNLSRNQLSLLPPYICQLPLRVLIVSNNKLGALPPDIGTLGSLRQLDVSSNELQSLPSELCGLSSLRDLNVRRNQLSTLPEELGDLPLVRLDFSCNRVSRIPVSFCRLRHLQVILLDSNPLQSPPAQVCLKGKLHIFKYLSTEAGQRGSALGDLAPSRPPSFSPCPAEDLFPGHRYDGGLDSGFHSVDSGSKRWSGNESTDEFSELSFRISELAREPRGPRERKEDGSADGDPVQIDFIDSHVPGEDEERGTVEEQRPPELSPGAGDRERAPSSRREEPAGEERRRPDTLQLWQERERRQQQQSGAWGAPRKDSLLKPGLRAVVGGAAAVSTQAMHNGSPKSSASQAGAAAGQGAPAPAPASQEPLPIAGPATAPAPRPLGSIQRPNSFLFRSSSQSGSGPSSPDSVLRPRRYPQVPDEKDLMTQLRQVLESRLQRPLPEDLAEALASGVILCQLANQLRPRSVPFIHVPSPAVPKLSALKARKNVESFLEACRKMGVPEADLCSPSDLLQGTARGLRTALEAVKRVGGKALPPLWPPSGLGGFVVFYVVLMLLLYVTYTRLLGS
UniProt P09382, whole entry, looked up: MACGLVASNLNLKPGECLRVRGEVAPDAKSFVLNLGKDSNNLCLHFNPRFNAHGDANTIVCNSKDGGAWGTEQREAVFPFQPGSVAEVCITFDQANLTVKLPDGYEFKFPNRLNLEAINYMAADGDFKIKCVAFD
UniProt Q8N1G4: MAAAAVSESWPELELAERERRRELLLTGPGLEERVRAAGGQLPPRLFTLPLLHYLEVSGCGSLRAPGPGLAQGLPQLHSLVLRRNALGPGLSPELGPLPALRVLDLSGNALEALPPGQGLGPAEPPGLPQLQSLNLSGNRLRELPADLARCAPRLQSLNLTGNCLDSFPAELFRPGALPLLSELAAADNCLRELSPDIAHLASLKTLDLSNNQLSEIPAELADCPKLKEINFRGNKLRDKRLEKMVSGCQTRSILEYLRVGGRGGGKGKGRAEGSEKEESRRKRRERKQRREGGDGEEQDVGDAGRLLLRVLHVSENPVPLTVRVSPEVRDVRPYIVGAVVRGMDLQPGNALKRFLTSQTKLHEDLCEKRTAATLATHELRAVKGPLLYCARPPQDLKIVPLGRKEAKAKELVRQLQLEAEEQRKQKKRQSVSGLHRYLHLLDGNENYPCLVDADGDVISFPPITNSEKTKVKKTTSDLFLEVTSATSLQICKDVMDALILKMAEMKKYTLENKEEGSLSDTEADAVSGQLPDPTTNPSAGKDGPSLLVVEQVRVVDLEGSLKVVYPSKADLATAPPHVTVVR
UniProt Q8NF37: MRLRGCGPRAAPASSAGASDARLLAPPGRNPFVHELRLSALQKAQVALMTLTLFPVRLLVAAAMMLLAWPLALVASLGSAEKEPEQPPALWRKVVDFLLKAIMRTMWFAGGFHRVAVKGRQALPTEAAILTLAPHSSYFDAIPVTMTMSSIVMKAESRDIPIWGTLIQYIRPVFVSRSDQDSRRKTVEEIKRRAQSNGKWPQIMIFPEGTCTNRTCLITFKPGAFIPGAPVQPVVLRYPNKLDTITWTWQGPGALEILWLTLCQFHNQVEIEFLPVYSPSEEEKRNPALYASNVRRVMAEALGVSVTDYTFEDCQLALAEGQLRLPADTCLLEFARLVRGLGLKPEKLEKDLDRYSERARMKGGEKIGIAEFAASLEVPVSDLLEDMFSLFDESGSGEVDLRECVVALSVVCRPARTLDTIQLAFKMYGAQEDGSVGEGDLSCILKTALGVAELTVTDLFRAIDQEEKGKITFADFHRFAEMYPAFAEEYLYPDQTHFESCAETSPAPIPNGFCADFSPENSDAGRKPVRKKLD
UniProt P09960: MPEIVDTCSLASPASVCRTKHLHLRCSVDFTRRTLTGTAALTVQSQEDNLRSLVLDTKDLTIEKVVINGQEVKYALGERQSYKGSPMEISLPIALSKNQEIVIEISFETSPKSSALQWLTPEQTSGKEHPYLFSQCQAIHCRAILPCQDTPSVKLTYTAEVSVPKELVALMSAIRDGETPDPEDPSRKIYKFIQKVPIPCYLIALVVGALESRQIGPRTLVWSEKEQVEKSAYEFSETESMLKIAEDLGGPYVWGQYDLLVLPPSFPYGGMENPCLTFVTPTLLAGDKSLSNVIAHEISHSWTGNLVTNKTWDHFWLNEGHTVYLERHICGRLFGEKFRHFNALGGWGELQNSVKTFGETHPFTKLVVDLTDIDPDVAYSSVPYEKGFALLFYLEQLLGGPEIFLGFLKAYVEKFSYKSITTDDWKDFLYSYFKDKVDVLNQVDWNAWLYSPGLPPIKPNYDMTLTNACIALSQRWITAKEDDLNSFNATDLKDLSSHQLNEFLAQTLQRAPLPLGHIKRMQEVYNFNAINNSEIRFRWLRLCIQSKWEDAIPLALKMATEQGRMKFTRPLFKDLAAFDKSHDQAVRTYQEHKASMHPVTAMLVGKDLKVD
UniProt P20700: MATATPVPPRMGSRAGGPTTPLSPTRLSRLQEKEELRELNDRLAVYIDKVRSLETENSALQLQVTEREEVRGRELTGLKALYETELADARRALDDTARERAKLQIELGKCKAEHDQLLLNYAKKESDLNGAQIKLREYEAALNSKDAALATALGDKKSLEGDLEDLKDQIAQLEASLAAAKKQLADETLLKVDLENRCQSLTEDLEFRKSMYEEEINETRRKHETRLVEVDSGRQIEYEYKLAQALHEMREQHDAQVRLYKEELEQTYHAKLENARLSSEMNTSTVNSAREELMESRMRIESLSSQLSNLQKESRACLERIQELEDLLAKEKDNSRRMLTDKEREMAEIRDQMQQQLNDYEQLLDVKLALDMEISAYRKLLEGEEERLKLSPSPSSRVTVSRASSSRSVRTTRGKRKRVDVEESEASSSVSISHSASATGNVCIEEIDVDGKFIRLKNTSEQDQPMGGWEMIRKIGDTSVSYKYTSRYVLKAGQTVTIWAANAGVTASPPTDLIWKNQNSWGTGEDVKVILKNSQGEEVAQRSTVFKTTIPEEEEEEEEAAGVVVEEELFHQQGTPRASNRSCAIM
UniProt O95202: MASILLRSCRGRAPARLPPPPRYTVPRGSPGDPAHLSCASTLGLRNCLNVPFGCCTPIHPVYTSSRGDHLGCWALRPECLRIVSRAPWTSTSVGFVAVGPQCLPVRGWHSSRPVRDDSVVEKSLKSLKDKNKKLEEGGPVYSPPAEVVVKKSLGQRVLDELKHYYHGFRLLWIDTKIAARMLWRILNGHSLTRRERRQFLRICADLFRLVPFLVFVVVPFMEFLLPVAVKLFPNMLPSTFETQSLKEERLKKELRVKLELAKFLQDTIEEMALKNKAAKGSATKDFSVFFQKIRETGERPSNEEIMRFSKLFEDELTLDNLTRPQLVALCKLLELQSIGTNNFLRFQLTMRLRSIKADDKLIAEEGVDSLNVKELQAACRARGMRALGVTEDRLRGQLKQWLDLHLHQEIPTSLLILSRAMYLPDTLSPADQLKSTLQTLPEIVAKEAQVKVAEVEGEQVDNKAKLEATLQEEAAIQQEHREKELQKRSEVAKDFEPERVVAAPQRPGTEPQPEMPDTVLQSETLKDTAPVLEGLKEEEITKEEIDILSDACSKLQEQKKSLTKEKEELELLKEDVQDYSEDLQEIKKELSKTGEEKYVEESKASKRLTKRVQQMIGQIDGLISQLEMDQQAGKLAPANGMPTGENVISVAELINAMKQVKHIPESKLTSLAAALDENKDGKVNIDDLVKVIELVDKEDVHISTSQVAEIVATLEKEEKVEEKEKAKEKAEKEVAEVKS
UniProt Q96GY3: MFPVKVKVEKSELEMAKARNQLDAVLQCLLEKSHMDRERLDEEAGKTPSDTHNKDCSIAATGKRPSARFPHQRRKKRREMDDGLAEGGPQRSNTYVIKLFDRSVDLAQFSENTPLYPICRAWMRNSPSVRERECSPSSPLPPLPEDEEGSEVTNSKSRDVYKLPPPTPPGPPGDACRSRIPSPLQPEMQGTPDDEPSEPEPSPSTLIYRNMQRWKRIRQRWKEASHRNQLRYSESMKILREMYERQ
UniProt Q8WWI1: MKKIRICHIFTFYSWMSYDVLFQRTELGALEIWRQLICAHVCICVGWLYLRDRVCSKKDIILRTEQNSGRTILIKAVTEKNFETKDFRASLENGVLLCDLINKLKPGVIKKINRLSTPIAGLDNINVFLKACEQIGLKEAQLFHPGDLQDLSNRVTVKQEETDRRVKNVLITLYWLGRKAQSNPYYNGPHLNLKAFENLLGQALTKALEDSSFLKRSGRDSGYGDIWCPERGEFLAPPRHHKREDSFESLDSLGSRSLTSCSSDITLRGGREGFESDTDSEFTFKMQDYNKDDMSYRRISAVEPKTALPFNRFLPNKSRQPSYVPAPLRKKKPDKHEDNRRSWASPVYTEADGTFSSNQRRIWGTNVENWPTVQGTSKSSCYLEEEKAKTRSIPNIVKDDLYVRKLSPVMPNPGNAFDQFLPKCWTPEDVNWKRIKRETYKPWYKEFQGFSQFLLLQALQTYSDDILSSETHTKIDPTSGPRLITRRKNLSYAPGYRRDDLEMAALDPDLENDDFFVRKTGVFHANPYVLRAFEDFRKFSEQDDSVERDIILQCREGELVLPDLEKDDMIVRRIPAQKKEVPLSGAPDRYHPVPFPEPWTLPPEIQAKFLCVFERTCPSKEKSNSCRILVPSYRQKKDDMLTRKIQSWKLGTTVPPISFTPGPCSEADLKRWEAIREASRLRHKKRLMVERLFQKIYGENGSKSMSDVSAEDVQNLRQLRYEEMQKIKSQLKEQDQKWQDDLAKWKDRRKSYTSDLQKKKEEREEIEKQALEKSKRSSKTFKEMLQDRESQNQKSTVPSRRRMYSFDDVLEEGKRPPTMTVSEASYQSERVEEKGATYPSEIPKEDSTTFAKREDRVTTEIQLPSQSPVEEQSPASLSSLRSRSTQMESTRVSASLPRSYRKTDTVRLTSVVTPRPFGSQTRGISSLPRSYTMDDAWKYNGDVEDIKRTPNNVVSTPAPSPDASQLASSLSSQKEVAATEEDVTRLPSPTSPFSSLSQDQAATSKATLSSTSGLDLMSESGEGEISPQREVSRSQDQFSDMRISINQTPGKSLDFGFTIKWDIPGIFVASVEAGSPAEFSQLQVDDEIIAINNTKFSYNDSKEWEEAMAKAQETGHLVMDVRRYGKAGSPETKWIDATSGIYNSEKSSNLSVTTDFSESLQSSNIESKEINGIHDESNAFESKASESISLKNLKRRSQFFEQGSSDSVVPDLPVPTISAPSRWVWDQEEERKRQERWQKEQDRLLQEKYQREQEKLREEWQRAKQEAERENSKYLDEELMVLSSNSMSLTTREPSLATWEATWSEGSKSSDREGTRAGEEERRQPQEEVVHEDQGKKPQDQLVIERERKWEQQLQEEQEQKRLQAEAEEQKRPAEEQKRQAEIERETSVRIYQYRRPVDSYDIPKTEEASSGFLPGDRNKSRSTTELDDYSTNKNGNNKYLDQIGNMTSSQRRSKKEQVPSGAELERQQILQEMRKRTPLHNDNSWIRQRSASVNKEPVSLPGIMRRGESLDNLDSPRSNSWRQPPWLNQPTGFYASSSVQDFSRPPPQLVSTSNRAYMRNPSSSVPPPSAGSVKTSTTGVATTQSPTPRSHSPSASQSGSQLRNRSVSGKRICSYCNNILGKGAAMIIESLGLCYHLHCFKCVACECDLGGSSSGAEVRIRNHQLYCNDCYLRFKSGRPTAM
UniProt Q3ZCW2: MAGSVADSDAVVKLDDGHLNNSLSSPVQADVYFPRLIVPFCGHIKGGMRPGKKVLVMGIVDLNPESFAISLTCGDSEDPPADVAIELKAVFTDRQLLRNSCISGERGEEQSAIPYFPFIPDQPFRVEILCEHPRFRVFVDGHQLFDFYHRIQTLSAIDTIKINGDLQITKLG
UniProt O60711: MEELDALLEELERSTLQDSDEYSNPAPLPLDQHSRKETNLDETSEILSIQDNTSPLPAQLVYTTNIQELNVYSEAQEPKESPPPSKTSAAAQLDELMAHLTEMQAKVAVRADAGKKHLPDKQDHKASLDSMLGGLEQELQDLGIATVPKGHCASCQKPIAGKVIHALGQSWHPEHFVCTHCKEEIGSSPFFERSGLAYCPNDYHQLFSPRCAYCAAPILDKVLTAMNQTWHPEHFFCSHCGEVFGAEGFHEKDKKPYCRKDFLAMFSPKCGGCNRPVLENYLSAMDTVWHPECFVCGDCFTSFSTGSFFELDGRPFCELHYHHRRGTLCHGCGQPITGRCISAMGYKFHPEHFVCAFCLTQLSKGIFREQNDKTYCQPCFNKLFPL
UniProt Q9Y333: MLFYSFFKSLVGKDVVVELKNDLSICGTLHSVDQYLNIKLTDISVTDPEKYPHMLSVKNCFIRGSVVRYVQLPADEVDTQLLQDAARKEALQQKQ

Compound: Cc1cc(ccc1-c1ccccc1)C(=O)N1CCCN(CC1)C(=O)CCl [compound 10]
Experiment: probe-labelled cysteine peptide fold change vs DMSO (competition) (log2 fold change); higher = less target engagement (more negative = stronger competition)
Details: THP-1, incubation time: 4 h
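Also: competitive profiling in live THP-1 cells: cysteine peptides tagged with an iodoacetamide desthiobiotin (IA-DTB) probe, intensity after compound treatment relative to DMSO-treated cells.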

Target	probe-labelled cysteine peptide fold change (10 µM)	probe-labelled cysteine peptide fold change (50 µM)
LRCH4_O75427_102_NRFPEVPEAACQLVSLEGLSLYHNCLR (UniProt O75427)	0.162	-0.158
LGALS1_P09382_17_PGECLR (UniProt P09382)	0.368	0.795
LRPPRC_P42704_721+722_AKYESDMVTGGYAALINLCCR (UniProt P42704)	-0.122	-0.366
LRRC47_Q8N1G4_367_LHEDLCEK (UniProt Q8N1G4)	-0.211	-0.0285
LPCAT1_Q8NF37_443_MYGAQEDGSVGEGDLSCILK (UniProt Q8NF37)	-0.0185	0.179
LIG3_P49916_929_KAADETLCQTK (UniProt P49916)	-0.152	-1.24
LIMS1_P48059_240+252+255_GLAYCETHYNQLFGDVCFHCNR (UniProt P48059)	-0.111	-0.492
LIMD1_Q9UGP4_401_LSPTSLVHPVMSTLPELSCK (UniProt Q9UGP4)	-0.0884	-0.436
LRCH4_O75427_571_LQRPLPEDLAEALASGVILCQLANQLRPR (UniProt O75427)	0.176	-0.0515
LTA4H_P09960_136_EHPYLFSQCQAIHCR (UniProt P09960)	-0.0381	-0.0993
LENG8_Q96PV6_723_LYCHAPCMSGYLVDK (UniProt Q96PV6)	-0.296	0.126
LMNB1_P20700_110_CKAEHDQLLLNYAK (UniProt P20700)	0.0414	-0.47
LETM1_O95202_552_DTAPVLEGLKEEEITKEEIDILSDACSK (UniProt O95202)	0.134	-0.338
LIN37_Q96GY3_28_NQLDAVLQCLLEK (UniProt Q96GY3)	-0.0473	-0.321
LIG4_P49917_747_FMIHMCPSTK (UniProt P49917)	0.0104	-0.0986
LRCH3_Q96II8_531_QHPLLDGVDGECPFPSR (UniProt Q96II8)	-0.153	-0.329
LSP1_P33241_36_AEASSDPGAEEREELLGPTAQWSVEDEEEAVHEQCQHER (UniProt P33241)	0.044	0.363
LRRC58_Q96CX6_119_GLAQSPLCR (UniProt Q96CX6)	-0.121	-0.519
LMO7_Q8WWI1_98_ASLENGVLLCDLINK (UniProt Q8WWI1)	0.553	0.766

Copied from the results shown for reference:
Target	probe-labelled cysteine peptide fold change (10 µM)	probe-labelled cysteine peptide fold change (50 µM)
LGALS1_P09382_17_PGECLR (UniProt P09382)	0.368	0.795
LRPPRC_P42704_721+722_AKYESDMVTGGYAALINLCCR (UniProt P42704)	-0.122	-0.366

(cont.)

Target	probe-labelled cysteine peptide fold change (10 µM)	probe-labelled cysteine peptide fold change (50 µM)
LEO1_Q8WVC0_530_ILPMAGRDPECQR (UniProt Q8WVC0)	-0.112	-0.254
LRRC8D_Q7L1W4_733_CLDVSYNNISMIPIEIGLLQNLQHLHITGNK (UniProt Q7L1W4)	0.194	0.216
LGALSL_Q3ZCW2_130_VEILCEHPR (UniProt Q3ZCW2)	0.305	0.368
LRRC8D_Q7L1W4_645_MMNVAELELQNCELER (UniProt Q7L1W4)	-0.595	0.0779
LRRC41_Q15345_607_GAQPAPLLCSVLK (UniProt Q15345)	-0.179	-0.273
LPXN_O60711_152+155_GHCASCQKPIAGK (UniProt O60711)	-0.235	-0.711
LIMA1_Q9UHB6_393_ETCVECQK (UniProt Q9UHB6)	0.179	0.0554
LPXN_O60711_332_GTLCHGCGQPITGR (UniProt O60711)	-0.0698	0.039
LRRC8C_Q8TDW0_682_IEVLPSHLFLCNK (UniProt Q8TDW0)	0.106	0.334
LMO7_Q8WWI1_228_DSGYGDIWCPER (UniProt Q8WWI1)	-0.221	-0.529
LRRFIP2_Q9Y608_435_HMCSVLQHK (UniProt Q9Y608)	0.0226	-0.0546
LSM2_Q9Y333_26_DVVVELKNDLSICGTLHSVDQYLNIK (UniProt Q9Y333)	0.0504	-0.543
LIN37_Q96GY3_56_DCSIAATGK (UniProt Q96GY3)	-0.144	-0.424
LMNB2_Q03252_212_CQSLQEELDFRK (UniProt Q03252)	0.0967	-0.0384
LRRFIP1_Q32MZ4_14_EIDCLSPEAQK (UniProt Q32MZ4)	-0.0581	-0.404
LRP1B_Q9NZR2_1079_DCEDGSDEK (UniProt Q9NZR2)	0.0727	0.503
LRCH4_O75427_105_CLNPALGNLTALTYLNLSR (UniProt O75427)	-0.0243	-0.184
LRSAM1_Q6UWE0_193_EVCGAGTAAILQFLCK (UniProt Q6UWE0)	0.0137	0.149
